For experiment [1], the target named is MUC5ac mucin (PAM4 antigen) from CaPan1 human pancreatic carcinoma (human) (UniProt P98088). In words: competition assay of FIG. 5; competitor labelled cPAM4.
For experiment [2] the target is unchanged. In words: competitive ELISA on PAM4-antigen (CaPan1 Ag) coated plates; competitor HRP-conjugated cPAM4. On the technique in general: ELISA stands for enzyme-linked immunosorbent assay.
The target is the same in experiment [3]. Put plainly: sandwich EIA, PAM4 capture.
The target is the same in experiment [4]. In words: indirect, sandwich and blocking EIA taken together.
The target is the same in experiment [5]. In words: indirect EIA on CPM1-coated plates, MAb at 10 µg/mL.
The target is the same in experiment [6]. In words: indirect EIA on CPM1 (FIG. 25), MAbs at 10 µg/mL.
Experiment [7] has the same target. Put plainly: inhibition EIA on CPM1-coated plates (FIG. 27A); competitor hPAM4.

By UniProt entry, the sequences of proteins in these tests, tags left out. Residues count along the entry.
UniProt P98088, residues 28-5654: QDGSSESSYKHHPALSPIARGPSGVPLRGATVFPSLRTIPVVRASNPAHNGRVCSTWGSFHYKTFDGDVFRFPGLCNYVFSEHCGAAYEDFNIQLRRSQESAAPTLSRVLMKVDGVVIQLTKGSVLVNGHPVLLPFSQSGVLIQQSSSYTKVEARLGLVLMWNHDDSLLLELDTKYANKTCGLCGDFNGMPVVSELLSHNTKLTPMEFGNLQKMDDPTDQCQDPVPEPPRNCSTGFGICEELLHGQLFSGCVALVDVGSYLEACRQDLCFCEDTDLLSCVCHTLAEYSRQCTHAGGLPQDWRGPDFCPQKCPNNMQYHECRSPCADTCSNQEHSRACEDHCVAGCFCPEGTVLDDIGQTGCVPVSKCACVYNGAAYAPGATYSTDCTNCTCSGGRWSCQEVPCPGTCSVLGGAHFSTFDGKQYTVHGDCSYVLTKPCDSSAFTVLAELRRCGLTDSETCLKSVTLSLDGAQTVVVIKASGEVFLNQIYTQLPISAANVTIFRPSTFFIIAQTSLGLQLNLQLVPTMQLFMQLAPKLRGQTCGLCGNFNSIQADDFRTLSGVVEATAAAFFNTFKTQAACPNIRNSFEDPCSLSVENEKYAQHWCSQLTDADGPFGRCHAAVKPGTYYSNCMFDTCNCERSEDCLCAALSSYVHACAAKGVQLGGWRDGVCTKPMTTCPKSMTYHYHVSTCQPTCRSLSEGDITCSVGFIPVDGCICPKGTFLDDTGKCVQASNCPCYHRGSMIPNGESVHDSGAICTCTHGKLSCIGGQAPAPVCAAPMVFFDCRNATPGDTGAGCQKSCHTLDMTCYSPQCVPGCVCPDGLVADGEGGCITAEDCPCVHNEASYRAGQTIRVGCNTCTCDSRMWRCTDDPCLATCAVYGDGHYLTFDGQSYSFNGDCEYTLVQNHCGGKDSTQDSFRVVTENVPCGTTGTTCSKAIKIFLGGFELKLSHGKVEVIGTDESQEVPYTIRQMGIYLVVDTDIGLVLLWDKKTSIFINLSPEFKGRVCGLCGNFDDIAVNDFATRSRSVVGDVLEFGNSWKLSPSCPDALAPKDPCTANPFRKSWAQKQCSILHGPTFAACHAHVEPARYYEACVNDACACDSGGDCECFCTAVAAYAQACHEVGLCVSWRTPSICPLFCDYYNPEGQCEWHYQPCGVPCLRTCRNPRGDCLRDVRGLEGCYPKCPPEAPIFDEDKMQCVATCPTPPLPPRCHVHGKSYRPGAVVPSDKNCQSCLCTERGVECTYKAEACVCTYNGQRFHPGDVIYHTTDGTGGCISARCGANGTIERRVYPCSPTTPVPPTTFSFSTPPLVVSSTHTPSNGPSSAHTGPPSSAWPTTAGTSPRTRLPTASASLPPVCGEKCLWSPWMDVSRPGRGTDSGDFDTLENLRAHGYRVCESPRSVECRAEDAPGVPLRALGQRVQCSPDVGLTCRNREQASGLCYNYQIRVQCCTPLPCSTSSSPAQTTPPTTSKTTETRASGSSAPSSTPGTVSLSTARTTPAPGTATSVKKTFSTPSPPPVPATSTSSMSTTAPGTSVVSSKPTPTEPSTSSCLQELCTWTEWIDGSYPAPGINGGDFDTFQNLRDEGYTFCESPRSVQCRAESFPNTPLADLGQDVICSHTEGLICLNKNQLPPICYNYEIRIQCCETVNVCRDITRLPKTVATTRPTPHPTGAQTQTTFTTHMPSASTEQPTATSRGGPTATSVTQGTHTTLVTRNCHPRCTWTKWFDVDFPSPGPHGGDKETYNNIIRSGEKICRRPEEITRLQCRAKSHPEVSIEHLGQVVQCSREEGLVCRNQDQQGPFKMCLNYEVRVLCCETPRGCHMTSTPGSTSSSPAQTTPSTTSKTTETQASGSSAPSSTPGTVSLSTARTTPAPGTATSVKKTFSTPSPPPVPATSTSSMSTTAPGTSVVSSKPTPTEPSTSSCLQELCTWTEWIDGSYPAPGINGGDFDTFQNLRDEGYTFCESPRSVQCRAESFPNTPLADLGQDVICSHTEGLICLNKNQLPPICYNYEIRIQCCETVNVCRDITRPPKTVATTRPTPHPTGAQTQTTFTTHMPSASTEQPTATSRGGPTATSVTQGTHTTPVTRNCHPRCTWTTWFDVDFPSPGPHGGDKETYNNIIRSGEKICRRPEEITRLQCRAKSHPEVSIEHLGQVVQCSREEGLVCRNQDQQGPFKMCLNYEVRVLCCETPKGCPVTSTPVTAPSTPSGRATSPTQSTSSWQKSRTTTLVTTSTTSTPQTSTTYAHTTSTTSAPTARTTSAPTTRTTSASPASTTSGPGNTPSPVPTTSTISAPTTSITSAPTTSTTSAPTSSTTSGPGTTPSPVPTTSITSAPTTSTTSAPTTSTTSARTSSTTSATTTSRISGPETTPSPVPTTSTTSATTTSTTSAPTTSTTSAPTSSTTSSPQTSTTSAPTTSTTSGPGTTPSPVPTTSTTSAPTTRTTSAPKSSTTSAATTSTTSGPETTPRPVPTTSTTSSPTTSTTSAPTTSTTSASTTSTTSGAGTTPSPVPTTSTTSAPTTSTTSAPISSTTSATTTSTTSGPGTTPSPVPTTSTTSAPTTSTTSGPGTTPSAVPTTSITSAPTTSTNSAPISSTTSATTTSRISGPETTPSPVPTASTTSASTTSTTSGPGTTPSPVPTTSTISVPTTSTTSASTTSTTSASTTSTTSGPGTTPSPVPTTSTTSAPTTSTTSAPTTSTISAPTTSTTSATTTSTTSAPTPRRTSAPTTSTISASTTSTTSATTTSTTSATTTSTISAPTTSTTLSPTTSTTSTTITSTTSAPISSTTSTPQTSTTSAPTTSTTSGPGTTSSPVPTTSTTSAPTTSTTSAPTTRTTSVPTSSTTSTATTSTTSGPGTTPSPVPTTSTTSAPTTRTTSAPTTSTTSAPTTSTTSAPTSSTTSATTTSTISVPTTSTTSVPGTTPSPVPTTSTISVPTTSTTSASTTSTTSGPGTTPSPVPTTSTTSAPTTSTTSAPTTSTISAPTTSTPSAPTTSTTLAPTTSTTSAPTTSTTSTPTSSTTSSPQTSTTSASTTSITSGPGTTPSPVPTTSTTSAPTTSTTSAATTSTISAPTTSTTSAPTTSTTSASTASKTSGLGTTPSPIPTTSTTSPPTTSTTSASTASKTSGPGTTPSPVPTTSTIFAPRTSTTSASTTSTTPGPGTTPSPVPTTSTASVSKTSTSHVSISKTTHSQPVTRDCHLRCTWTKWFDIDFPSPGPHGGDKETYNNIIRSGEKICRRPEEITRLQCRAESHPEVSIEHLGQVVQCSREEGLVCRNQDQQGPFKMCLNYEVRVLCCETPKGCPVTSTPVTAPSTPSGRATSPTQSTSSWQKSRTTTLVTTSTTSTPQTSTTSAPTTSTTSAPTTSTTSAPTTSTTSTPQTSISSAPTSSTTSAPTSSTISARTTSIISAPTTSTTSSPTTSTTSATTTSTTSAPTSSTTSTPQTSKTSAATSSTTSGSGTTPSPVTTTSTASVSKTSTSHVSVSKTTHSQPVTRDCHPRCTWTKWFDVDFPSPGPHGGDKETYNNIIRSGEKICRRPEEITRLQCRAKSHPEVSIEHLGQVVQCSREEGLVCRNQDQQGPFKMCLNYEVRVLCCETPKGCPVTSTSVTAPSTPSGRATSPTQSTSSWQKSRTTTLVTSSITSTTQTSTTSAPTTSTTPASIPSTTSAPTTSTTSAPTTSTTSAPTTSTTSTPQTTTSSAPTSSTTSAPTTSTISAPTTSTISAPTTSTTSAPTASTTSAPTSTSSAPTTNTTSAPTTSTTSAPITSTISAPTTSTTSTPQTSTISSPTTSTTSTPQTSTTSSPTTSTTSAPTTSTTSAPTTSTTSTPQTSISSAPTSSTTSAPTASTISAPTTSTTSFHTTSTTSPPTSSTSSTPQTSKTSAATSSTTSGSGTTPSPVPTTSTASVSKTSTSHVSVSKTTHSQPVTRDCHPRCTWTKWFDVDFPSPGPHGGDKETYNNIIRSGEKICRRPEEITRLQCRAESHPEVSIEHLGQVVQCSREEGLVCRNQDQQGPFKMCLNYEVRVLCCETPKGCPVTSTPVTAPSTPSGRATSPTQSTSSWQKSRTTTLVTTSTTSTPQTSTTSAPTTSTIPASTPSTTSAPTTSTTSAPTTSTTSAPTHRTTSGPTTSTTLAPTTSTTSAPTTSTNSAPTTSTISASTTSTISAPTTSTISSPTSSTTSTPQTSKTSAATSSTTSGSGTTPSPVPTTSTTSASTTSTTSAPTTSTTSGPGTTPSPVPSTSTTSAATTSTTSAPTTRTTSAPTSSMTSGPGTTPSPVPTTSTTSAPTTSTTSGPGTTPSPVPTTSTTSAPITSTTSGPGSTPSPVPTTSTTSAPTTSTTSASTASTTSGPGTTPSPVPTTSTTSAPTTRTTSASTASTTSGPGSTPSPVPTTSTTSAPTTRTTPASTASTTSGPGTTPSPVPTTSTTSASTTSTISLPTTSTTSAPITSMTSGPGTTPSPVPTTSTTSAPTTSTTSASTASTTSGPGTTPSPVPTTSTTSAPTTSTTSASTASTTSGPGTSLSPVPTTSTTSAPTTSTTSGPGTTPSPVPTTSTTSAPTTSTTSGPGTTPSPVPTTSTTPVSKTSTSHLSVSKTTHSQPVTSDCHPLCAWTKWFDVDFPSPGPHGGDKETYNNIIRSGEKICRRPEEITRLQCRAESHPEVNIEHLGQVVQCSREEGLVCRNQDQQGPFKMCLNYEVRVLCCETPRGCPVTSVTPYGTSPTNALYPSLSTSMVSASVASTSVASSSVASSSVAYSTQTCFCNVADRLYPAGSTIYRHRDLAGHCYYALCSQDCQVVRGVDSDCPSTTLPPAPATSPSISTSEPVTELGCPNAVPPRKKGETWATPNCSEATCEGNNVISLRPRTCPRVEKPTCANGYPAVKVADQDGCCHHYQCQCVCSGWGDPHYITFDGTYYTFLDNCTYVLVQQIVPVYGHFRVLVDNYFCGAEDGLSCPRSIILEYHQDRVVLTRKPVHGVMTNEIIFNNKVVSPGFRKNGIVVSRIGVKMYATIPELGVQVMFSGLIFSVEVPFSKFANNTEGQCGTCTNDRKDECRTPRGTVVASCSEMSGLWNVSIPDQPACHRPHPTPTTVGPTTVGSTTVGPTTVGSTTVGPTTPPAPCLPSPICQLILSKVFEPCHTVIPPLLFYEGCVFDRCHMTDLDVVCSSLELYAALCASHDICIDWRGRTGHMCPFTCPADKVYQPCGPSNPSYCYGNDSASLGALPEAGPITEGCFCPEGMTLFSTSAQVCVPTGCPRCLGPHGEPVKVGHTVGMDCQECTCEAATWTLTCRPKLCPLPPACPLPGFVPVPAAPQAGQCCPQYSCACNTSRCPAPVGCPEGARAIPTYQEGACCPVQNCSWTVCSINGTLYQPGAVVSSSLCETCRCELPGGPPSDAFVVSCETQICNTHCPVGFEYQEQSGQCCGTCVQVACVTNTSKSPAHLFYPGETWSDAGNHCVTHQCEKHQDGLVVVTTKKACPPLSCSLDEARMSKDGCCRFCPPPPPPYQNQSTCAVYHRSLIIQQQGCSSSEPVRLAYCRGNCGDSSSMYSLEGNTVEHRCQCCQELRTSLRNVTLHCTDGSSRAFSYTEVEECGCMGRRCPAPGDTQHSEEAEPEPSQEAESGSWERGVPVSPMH

No constants are given. Whether binding was seen depends on the method and setting. Some results given as binding are weak or reduced against the parent protein; the word gives no strength.

B1: chimeric PAM4 (cPAM4) (antibody, V domains shown)
VH: QVQLQESGPELVKPGASVKMSCKASGYTFPSYVLHWVKQKPGQGLEWIGYINPYNDGTQYNEKFKGKATLTSDKSSSTAYMELSRLTSEDSAVYYCARGFGGSYGFAYWGQGTLITVSS
VL: DIQLTQSPAIMSASPGEKVTMTCSASSSVSSSYLYWYQQKPGSSPKLWIYSTSNLASGVPARFSGSGSGTSYSLTISSMEAEDAASYFCHQWNRYPYTFGGGTKLEIKR
B1: the binding result in experiment [1] and in experiment [2] was “binds” throughout.

B2: PAM4 antibody (version not stated where used) (antibody, V domains shown)
VH: EVQLQESGPELVKPGASVKMSCKASGYTFPSYVLHWVKQKPGQGLEWIGYINPYNDGTQYNEKFKGKATLTSDKSSSTAYMELSRLTSEDSAVYYCARGFGGSYGFAYWGQGTLITVSA
VL: DIVMTQSPAIMSASPGEKVTMTCSASSSVSSSYLYWYQQKPGSSPKLWIYSTSNLASGVPARFSGSGSGTSYSLTISSMEAEDAASYFCHQWNRYPYTFGGGTKLEIK
Regarding B2, the binding result in experiment [3] and in experiment [4] was “binds” in each case.

B3: murine PAM4 (mPAM4) IgG (antibody, V domains shown)
VH: EVQLQESGPELVKPGASVKMSCKASGYTFPSYVLHWVKQKPGQGLEWIGYINPYNDGTQYNEKFKGKATLTSDKSSSTAYMELSRLTSEDSAVYYCARGFGGSYGFAYWGQGTLITVSA
VL: DIVMTQSPAIMSASPGEKVTMTCSASSSVSSSYLYWYQQKPGSSPKLWIYSTSNLASGVPARFSGSGSGTSYSLTISSMEAEDAASYFCHQWNRYPYTFGGGTKLEIK
B3: the binding result in experiment [5], in experiment [6] and in experiment [7] was “binds” throughout.

(Values after patent US20140227179A1.)
